{"source": "PubChem BioAssay AID1053208 (Peter MacCallum Cancer Centre, 2014)", "test": "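Find knock-downs that sensitise mouse osteosarcoma cells to doxorubicin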 (primary screen)", "cells": "mouse osteosarcoma cells, early-passage culture from an engineered mouse model of fibroblastic bone tumour", "knock-down reagent": "siRNA pool against mouse genes, 40 nM", "timing": "about 120 h (48 h before drug, then 72 h with drug)", "conditions": "doxorubicin 100 nM for 72 h, roughly 30-40% inhibitory dose", "detection": "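Luminescent ATP signal taken as viability with or without 100 nM doxorubicin for 72 h; mean of two wells set against non-targeting siRNA and turned into robust z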", "direction": "viability z-score with doxorubicin: higher = more viable cells under doxorubicin; viability z-score without drug: higher = more viable cells with knock-down alone", "rule for the call": "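a pool counts as active when its viability z-score with doxorubicin is -2 or below and its z-score without drug lies between -2 and 2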", "note": "Here is a random part of about 17,000 deposited reagents. Over the whole deposit, 788 (4.7%) got an active call. 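Calls rest on z-score classes alone; an extra cut-off of viability at most 70% of control was not applied to them.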 A number with no mark means an inactive call. Not all columns of the deposit are shown. No sequences are given here."}
{"gene symbol": "Nup153", "PubChem SID": "SID152285654", "combined z-score class": "no change with or without drug", "viability z-score with doxorubicin": 0.11, "viability z-score without drug": -0.17}
{"gene symbol": "Mb21d2", "PubChem SID": "SID152260390", "combined z-score class": "no change with or without drug", "viability z-score with doxorubicin": 0.22, "viability z-score without drug": -0.17}
{"gene symbol": "Ptges3", "PubChem SID": "SID152284227", "combined z-score class": "low cell count with doxorubicin only (active)", "viability z-score with doxorubicin": -2.59, "viability z-score without drug": -0.51}
{"gene symbol": "Speer2", "PubChem SID": "SID152289292", "combined z-score class": "no change with or without drug", "viability z-score with doxorubicin": 1.24, "viability z-score without drug": -0.34}
{"gene symbol": "Plb1", "PubChem SID": "SID152265418", "combined z-score class": "no change with or without drug", "viability z-score with doxorubicin": 0.79, "viability z-score without drug": 1.18}
{"gene symbol": "Or2b6", "PubChem SID": "SID152294326", "combined z-score class": "no change with or without drug", "viability z-score with doxorubicin": -0.79, "viability z-score without drug": 0.17}
{"gene symbol": "Ttll3", "PubChem SID": "SID152326034", "combined z-score class": "no change with or without drug", "viability z-score with doxorubicin": -0.45, "viability z-score without drug": 0}
{"gene symbol": "Vmn1r231", "PubChem SID": "SID152271675", "combined z-score class": "no change with or without drug", "viability z-score with doxorubicin": -1.24, "viability z-score without drug": -0.51}
{"gene symbol": "Natd1", "PubChem SID": "SID152289727", "combined z-score class": "no change with or without drug", "viability z-score with doxorubicin": -0.67, "viability z-score without drug": -0.84}
{"gene symbol": "2410002F23Rik", "PubChem SID": "SID152329360", "combined z-score class": "no change with or without drug", "viability z-score with doxorubicin": 0.67, "viability z-score without drug": 1.18}
{"gene symbol": "Lrfn5", "PubChem SID": "SID152290810", "combined z-score class": "no change with or without drug", "viability z-score with doxorubicin": -1.12, "viability z-score without drug": -0.84}
{"gene symbol": "Phf19", "PubChem SID": "SID152284695", "combined z-score class": "no change with or without drug", "viability z-score with doxorubicin": -1.46, "viability z-score without drug": -0.51}

Look-ups from above.
Under “viability z-score with doxorubicin”, Natd1 [SID152289727] is entered as -0.67
Under “combined z-score class”, Lrfn5 [SID152290810] shows no change with or without drug
